Results: US6479533B1, “Methods and compositions for the protection of mitochondria” (priority 1997, dated 2002)
For at least one compound, name, drawing or mass did not settle the structure.

Tests used:
[1] = tested on: mitochondria in mouse keratinocytes; assay: MTT assay after UV-B irradiation; type: cell-based; conditions: 0.5 mM L-ergothioneine; UV-B 0 J/m^2
Text: Mouse keratinocytes were pretreated with different concentrations of L-ergothioneine (unencapsulated) and then exposed to ultraviolet B radiation (UV-B), the shorter wavelength range of UV light present in sunlight which is responsible for significant photodamage to the skin. The light was generated by a FS20 sunlamp filtered with 2 sheets of Kodacel to eliminate light having a wavelength less than 280 nm.
This assay measures the specific activity of mitochondria to cleave the tetrazolium ring of the soluble dye MTT [3-(4,5-dimethylthiazol-2-yl)-2,5-diphenyl tetrazolium bromide] to form the insoluble blue formazan form. […] In the MTT assay, mammalian cells are pretreated with L-ergothioneine and then treated with the mitochondrial damaging agent, in this example UV-B. MTT is then added and the formation of the blue dye is measured spectrophotometrically.
Table I provides the percent optical density of the formazan blue present relative to unexposed (control) mitochondria in cells for various UV-B levels, expressed as joules per square meter, and L-ergothioneine concentrations. […]
The L-ergothioneine was encapsulated into liposomes composed of phosphatidyl choline, phosphatidyl ethanolamine, oleic acid and cholesteryl hemisuccinate in a ratio of 2:2:1:5. […] The concentration of L-ergothioneine is calculated using the ε258 of L-ergothioneine of 14,500. […]

[2] = tested on: mitochondria in mouse keratinocytes; assay: MTT assay after alloxan exposure; type: cell-based
Text: This assay measures the specific activity of mitochondria to cleave the tetrazolium ring of the soluble dye MTT [3-(4,5-dimethylthiazol-2-yl)-2,5-diphenyl tetrazolium bromide] to form the insoluble blue formazan form. Living mitochondria metabolize MTT and make the blue formazan; dead mitochondria immediately stop forming blue formazan. In the MTT assay, mammalian cells are pretreated with L-ergothioneine and then treated with the mitochondrial damaging agent, in this example UV-B. MTT is then added and the formation of the blue dye is measured spectrophotometrically.
Mouse keratinocytes were pretreated with various concentrations of L-ergothioneine (unencapsulated) and then exposed to alloxan at various concentrations.
The effect of alloxan on the pretreated mitochondria was determined by the MTT assay as in Example 1.
Table 2 provides the percent optical densities of the formazan blue present relative to unexposed (control) mitochondria in cells for various alloxan concentrations, and L-ergothioneine concentrations.

C[N+](C)(C)[C@@H](Cc1c[nH]c(=S)[nH]1)C(=O)[O-] [L-ergothioneine]
percent optical density of formazan blue relative to unexposed (control) mitochondria [1]: 100-0% | percent optical density of formazan blue relative to unexposed (control) mitochondria ([2]; 0.1 mM L-ergothioneine, alloxan 40 mM): 73-3% | percent optical density of formazan blue relative to unexposed (control) mitochondria ([2]; 1 mM L-ergothioneine, alloxan 5 mM): 67-8%
